From patent US4624943 (dated 1986) come the findings set out here.

Some peptides are written in HELM: one residue between dots, names in brackets for other building blocks, links after the first $.

The data set in a line: general procedure: Boc solid-phase peptide synthesis; Boc-Pro-Merrifield resin; DCC/HBT (DMAP catalyst for 4-MeBzl-Pmp/Mpa). The note with it: late stage modification step.

In the case of “PEPTIDE1{[Pmp].[D-Tyr(Et)].F.V.N.C.P.[NHCH2-3-C6H4-CH2NH2]}$PEPTIDE1,PEPTIDE1,1:R3-6:R3$$$V2.0”, the step yield was determined as 44%.
